Laboratory results: PubChem BioAssay AID1259254 (NCATS, 2017)
Shown is a random part of about 59,000 reagents tested. About 1,550 of them (2.6%) were called active. 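G2 share is only a proxy for re-replication; each gene was hit by three separate siRNAs, and active genes were retested.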 A number with no mark means an inactive call. Not all columns of the deposit are shown. Not given: the amount of reagent.

Screen: 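Finding genes that stop cells copying their DNA twice in one cycle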 (primary screen)
Cells: human HCT116 colorectal cancer cells
Knock-down reagent: single siRNA against human genes
Timing: 3 days
Read-out: 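Imaged Hoechst DNA stain sorts each cell into a cycle phase by DNA amount; per plate, G2 fraction set to 0% for non-targeting and 100% for GMNN siRNA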
Reading the numbers: G2 robust z-score and G2 cells, % of GMNN control: higher = more G2 cells, more excess DNA replication
Rule for the call: 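An siRNA counts as active if its G2 robust z-score lies at least 5 MADs above the screen median; here such calls match roughly 38% of GMNN control or more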

OR6C1 [SID160766481]
- G2 robust z-score: -0.367
- G2 cells, % of GMNN control: 0.384

OR6C1 [SID160766482]
- G2 robust z-score: 3.63
- G2 cells, % of GMNN control: 28.5

OR6C1 [SID160766483]
- G2 robust z-score: -0.665
- G2 cells, % of GMNN control: -1.71

ARAP2 [SID160755497]
- G2 robust z-score: 0.334
- G2 cells, % of GMNN control: 5.32

ARAP2 [SID160755498]
- G2 robust z-score: -0.708
- G2 cells, % of GMNN control: -2.01

ARAP2 [SID160755499]
- G2 robust z-score: -0.496
- G2 cells, % of GMNN control: -0.523

SVBP [SID160733159]
- G2 robust z-score: -0.729
- G2 cells, % of GMNN control: -2.16

SVBP [SID160765362]
- G2 robust z-score: -0.746
- G2 cells, % of GMNN control: -2.28

SVBP [SID160765363]
- G2 robust z-score: 0.279
- G2 cells, % of GMNN control: 4.93

CYSTM1 [SID160752220]
- G2 robust z-score: 1.14
- G2 cells, % of GMNN control: 11

CYSTM1 [SID160752221]
- G2 robust z-score: 0.232
- G2 cells, % of GMNN control: 4.6

CYSTM1 [SID160752222]
- G2 robust z-score: -0.76
- G2 cells, % of GMNN control: -2.38

PRKD2 [SID160737143]
- G2 robust z-score: -1.1
- G2 cells, % of GMNN control: -4.76

PRKD2 [SID160737144]
- G2 robust z-score: 2.08
- G2 cells, % of GMNN control: 17.6

PRKD2 [SID160737145]
- G2 robust z-score: 2.36
- G2 cells, % of GMNN control: 19.6

GABRR3 [SID160760924]
- G2 robust z-score: -0.442
- G2 cells, % of GMNN control: -0.145

GABRR3 [SID160760925]
- G2 robust z-score: 1.67
- G2 cells, % of GMNN control: 14.7

GABRR3 [SID160760926]
- G2 robust z-score: 1.11
- G2 cells, % of GMNN control: 10.7
